Slope data for 2 molecules are collected here from patent US12060336B1, “(2E)-4-[(4-chlorophenyl)amino]-N-phenyl-2-(phenylimino)-1,3,5-dioxazepine-7-carboxamide as an eco-friendly insecticidal agent against Spodoptera littoralis (boisd.)” (King Faisal University, priority 2023, dated 2024).

The series concerns Spodoptera littoralis larvae. Description: Insecticidal leaf dip bioassay screening. To be noted: after 72 hours of treatment, probit (LDP-line) slope.

With `O=C(Nc1ccccc1)C1=CN=C(Nc2ccc(Cl)cc2)O/C(=N/c2ccccc2)O1` [Compound 2, (2E)-4-[(4-chlorophenyl)amino]-N-phenyl-2-(phenylimino)-1,3,5-dioxazepine-7-carboxamide], the Slope runs as follows: (2nd instar larvae) 0.246 ± 0.0791; (4th instar larvae) 0.225 ± 0.0820.
In the case of `CCOC(=O)NCCOc1ccc(Oc2ccccc2)cc1` [fenoxycarb, reference compound], the Slope (2nd instar larvae) was determined as 0.298 ± 0.0808 and the Slope (4th instar larvae) stood at 0.225 ± 0.0870.
